Data on 10 molecules can be found in article PMC11650989.

The target in this assay is EGFP-Nsp4 (PRRSV non-structural protein 4) (porcine reproductive and respiratory syndrome virus (PRRSV)). The assay can be described thus: affinity purification with mass spectrometry; GFP-Trap beads on clarified lysates of HEK293T cells transfected with pEGFP-Nsp4 or pEGFP (24 h), 2 h at 4°C; label-free LC-MS/MS in triplicate, MaxQuant against a human database; FDR ≤1%, two or more unique peptides, ratio greater than twofold.

Results are given in words; binding and its absence hold for the method and conditions named. In cells and extracts the contact can be indirect. A yes stands for co-enrichment or nearness to the bait. Other partners may have been found.

B1: Cold inducible RNA-binding protein (protein, UniProt Q14011 1-172)
chain: MASDEGKLFVGGLSFDTNEQSLEQVFSKYGQISEVVVVKDRETQRSRGFGFVTFENIDDAKDAMMAMNGKSVDGRQIRVDQAGKSSDNRSRGYRGGSAGGRGFFRGGRGRGRGFSRGGGDRGYGGNRFESRSGGYGGSRDYYSSRSQSGGYSDRSSGGSYRDSYDSYATHNE
For B1, the binding entry is given as “binds”.

B2: Pyruvate dehydrogenase (lipoamide) beta (protein, UniProt P11177 31-359)
chain: LQVTVRDAINQGMDEELERDEKVFLLGEEVAQYDGAYKVSRGLWKKYGDKRIIDTPISEMGFAGIAVGAAMAGLRPICEFMTFNFSMQAIDQVINSAAKTYYMSGGLQPVPIVFRGPNGASAGVAAQHSQCFAAWYGHCPGLKVVSPWNSEDAKGLIKSAIRDNNPVVVLENELMYGVPFEFPPEAQSKDFLIPIGKAKIERQGTHITVVSHSRPVGHCLEAAAVLSKEGVECEVINMRTIRPMDMETIEASVMKTNHLVTVEGGWPQFGVGAEICARIMEGPAFNFLDAPAVRVTGADVPMPYAKILEDNSIPQVKDIIFAIKKTLNI
For B2, the binding result is reported as “binds”.

B3: Peroxiredoxin 1 (protein, UniProt Q06830 1-199)
chain: MSSGNAKIGHPAPNFKATAVMPDGQFKDISLSDYKGKYVVFFFYPLDFTFVCPTEIIAFSDRAEEFKKLNCQVIGASVDSHFCHLAWVNTPKKQGGLGPMNIPLVSDPKRTIAQDYGVLKADEGISFRGLFIIDDKGILRQITVNDLPVGRSVDETLRLVQAFQFTDKHGEVCPAGWKPGSDTIKPDVQKSKEYFSKQK
In the case of B3, the binding result is on record as “binds”.

B4: Methionyl-tRNA synthetase (protein, UniProt P56192 1-900)
chain: MRLFVSDGVPGCLPVLAAAGRARGRAEVLISTVGPEDCVVPFLTRPKVPVLQLDSGNYLFSTSAICRYFFLLSGWEQDDLTNQWLEWEATELQPALSAALYYLVVQGKKGEDVLGSVRRALTHIDHSLSRQNCPFLAGETESLADIVLWGALYPLLQDPAYLPEELSALHSWFQTLSTQEPCQRAAETVLKQQGVLALRPYLQKQPQPSPAEGRAVTNEPEEEELATLSEEEIAMAVTAWEKGLESLPPLRPQQNPVLPVAGERNVLITSALPYVNNVPHLGNIIGCVLSADVFARYSRLRQWNTLYLCGTDEYGTATETKALEEGLTPQEICDKYHIIHADIYRWFNISFDIFGRTTTPQQTKITQDIFQQLLKRGFVLQDTVEQLRCEHCARFLADRFVEGVCPFCGYEEARGDQCDKCGKLINAVELKKPQCKVCRSCPVVQSSQHLFLDLPKLEKRLEEWLGRTLPGSDWTPNAQFITRSWLRDGLKPRCITRDLKWGTPVPLEGFEDKVFYVWFDATIGYLSITANYTDQWERWWKNPEQVDLYQFMAKDNVPFHSLVFPCSALGAEDNYTLVSHLIATEYLNYEDGKFSKSRGVGVFGDMAQDTGIPADIWRFYLLYIRPEGQDSAFSWTDLLLKNNSELLNNLGNFINRAGMFVSKFFGGYVPEMVLTPDDQRLLAHVTLELQHYHQLLEKVRIRDALRSILTISRHGNQYIQVNEPWKRIKGSEADRQRAGTVTGLAVNIAALLSVMLQPYMPTVSATIQAQLQLPPPACSILLTNFLCTLPAGHQIGTVSPLFQKLENDQIESLRQRFGGGQAKTSPKPAVVETVTTAKPQQIQALMDEVTKQGNIVRELKAQKADKNEVAAEVAKLLDLKKQLAVAEGKPPEAPKGKKKK
With B4, the binding result was “binds”.

B5: Signal recognition particle 9 kDa (protein, UniProt P49458 1-86)
chain: MPQYQTWEEFSRAAEKLYLADPMKARVVLKYRHSDGNLCVKVTDDLVCLVYKTDQAQDVKKIEKFHSQLMRLMVAKEARNVTMETE
As to B5, the binding result is recorded as “binds”.

B6: Plastin 3 (protein, UniProt P13797 1-630)
chain: MDEMATTQISKDELDELKEAFAKVDLNSNGFICDYELHELFKEANMPLPGYKVREIIQKLMLDGDRNKDGKISFDEFVYIFQEVKSSDIAKTFRKAINRKEGICALGGTSELSSEGTQHSYSEEEKYAFVNWINKALENDPDCRHVIPMNPNTDDLFKAVGDGIVLCKMINLSVPDTIDERAINKKKLTPFIIQENLNLALNSASAIGCHVVNIGAEDLRAGKPHLVLGLLWQIIKIGLFADIELSRNEALAALLRDGETLEELMKLSPEELLLRWANFHLENSGWQKINNFSADIKDSKAYFHLLNQIAPKGQKEGEPRIDINMSGFNETDDLKRAESMLQQADKLGCRQFVTPADVVSGNPKLNLAFVANLFNKYPALTKPENQDIDWTLLEGETREERTFRNWMNSLGVNPHVNHLYADLQDALVILQLYERIKVPVDWSKVNKPPYPKLGANMKKLENCNYAVELGKHPAKFSLVGIGGQDLNDGNQTLTLALVWQLMRRYTLNVLEDLGDGQKANDDIIVNWVNRTLSEAGKSTSIQSFKDKTISSSLAVVDLIDAIQPGCINYDLVKSGNLTEDDKHNNAKYAVSMARRIGARVYALPEDLVEVKPKMVMTVFACLMGRGMKRV
Regarding B6, the binding result is “binds”.

B7: Single-stranded DNA binding protein 1, mitochondrial (protein, UniProt Q04837 17-148)
chain: ESETTTSLVLERSLNRVHLLGRVGQDPVLRQVEGKNPVTIFSLATNEMWRSGDSEVYQLGDVSQKTTWHRISVFRPGLRDVAYQYVKKGSRIYLEGKIDYGEYMDKNNVRRQATTIIADNIIFLSDQTKEKE
Turning to B7, the binding result is reported as “binds”.

B8: Pyrophosphatase (inorganic) 1 (protein, UniProt Q15181 1-289)
chain: MSGFSTEERAAPFSLEYRVFLKNEKGQYISPFHDIPIYADKDVFHMVVEVPRWSNAKMEIATKDPLNPIKQDVKKGKLRYVANLFPYKGYIWNYGAIPQTWEDPGHNDKHTGCCGDNDPIDVCEIGSKVCARGEIIGVKVLGILAMIDEGETDWKVIAINVDDPDAANYNDINDVKRLKPGYLEATVDWFRRYKVPDGKPENEFAFNAEFKDKDFAIDIIKSTHDHWKALVTKKTNGKGISCMNTTLSESPFKCDPDAARAIVDALPPPCESACTVPTDVDKWFHHQKN
As to B8, the binding result is “binds”.

B9: Polymerase delta-interacting protein 2 (protein, UniProt Q9Y2S7 52-368)
chain: SSRNRPEGKVLETVGVFEVPKQNGKYETGQLFLHSIFGYRGVVLFPWQARLYDRDVASAAPEKAENPAGHGSKEVKGKTHTYYQVLIDARDCPHISQRSQTEAVTFLANHDDSRALYAIPGLDYVSHEDILPYTSTDQVPIQHELFERFLLYDQTKAPPFVARETLRAWQEKNHPWLELSDVHRETTENIRVTVIPFYMGMREAQNSHVYWWRYCIRLENLDSDVVQLRERHWRIFSLSGTLETVRGRGVVGREPVLSKEQPAFQYSSHVSLQASSGHMWGTFRFERPDGSHFDVRIPPFSLESNKDEKTPPSGLHW
In the case of B9, the binding result is given as “binds”.

B10: Endothelial differentiation-related factor 1 (protein, UniProt O60869 1-148)
chain: MAESDWDTVTVLRKKGPTAAQAKSKQAILAAQRRGEDVETSKKWAAGQNKQHSITKNTAKLDRETEELHHDRVTLEVGKVIQQGRQSKGLTQKDLATKINEKPQVIADYESGRAIPNNQVLGKIERAIGLKLRGKDIGKPIEKGPRAK
In the case of B10, the binding entry was “binds”.
